The values that follow come from US20140105900A1 (Amgen, published 2014).

By UniProt entry, the sequences of proteins in these tests, tags left out. Where a name states a change or a piece, a line headed by the entry shows the natural chain unless it says otherwise. Chains listed by the source or under a name are the forms on record and can include a tag or linker.
cynomolgus IL-21 receptor on cells (G7Q0S8, form named): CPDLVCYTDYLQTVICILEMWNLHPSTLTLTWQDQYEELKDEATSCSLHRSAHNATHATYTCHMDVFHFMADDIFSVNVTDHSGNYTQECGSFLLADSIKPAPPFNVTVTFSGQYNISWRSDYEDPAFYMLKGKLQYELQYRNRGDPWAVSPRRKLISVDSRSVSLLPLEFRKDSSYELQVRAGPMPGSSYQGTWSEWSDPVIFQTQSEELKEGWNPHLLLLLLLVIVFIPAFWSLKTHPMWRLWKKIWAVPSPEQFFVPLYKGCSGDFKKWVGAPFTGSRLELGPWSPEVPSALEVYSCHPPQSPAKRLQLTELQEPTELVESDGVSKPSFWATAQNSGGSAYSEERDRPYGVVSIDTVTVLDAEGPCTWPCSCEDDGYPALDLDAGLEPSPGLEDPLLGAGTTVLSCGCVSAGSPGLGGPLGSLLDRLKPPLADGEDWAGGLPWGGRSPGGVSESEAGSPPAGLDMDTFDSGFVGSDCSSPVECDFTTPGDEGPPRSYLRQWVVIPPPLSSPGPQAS

No constants are given. Whether binding was seen depends on the method and setting. Some entries that bind do so weakly or less than the wild type.

This assay concerns the target cynomolgus IL-21 receptor on cells (cynomolgus monkey, UniProt G7Q0S8 41-559). The experiment in a line: flow cytometry, full length cyno IL-21R on 293T cells. In general terms: Flow cytometry measures light scatter and fluorescence of single cells or particles in a stream.

B1: 34H7 (antibody, V domains shown)
VH: EVQLVQSGAELKKPGESLKISCKGSGYRFTSYWIGWVRQMPGKGLEWMGIIYPGDSDTRYSPSFQGQVTISADKSISTAYLQWHSLKVSDTAMYYCASPGYSTRWYHFDYWGQGTLVTVSS
VL: EIVMTQSPATLSVSPGERATLSCRASQSISSSLVWYQQKPGQAPRLLIYGASTRATGIPARFSGSGSGTEFSLTISSLQSEDFAVYYCQQYNNWPLLTFGPGTKVDIKR
notes: Fully human antibody from XenoMouse, subcloned as a full IgG construct; also called anti-IL-21 receptor antibody 34H7; IL-21R mAb 34H7
With B1, the binding entry was “binds”.

B2: 30G3 (antibody, V domains shown)
VH: QVQLQESGPGLVKPSETLSLTCTVSGGSISSYYWSWIRQPAGKGLEWIGRIYTSGSTYFNPSLKSRVTMSVDTSKNQFSLKLSSVTAADTAVYYCARGRELLDYWGQGTLVTVSS
VL: EVVLTQSPGTLSLSPGERATLSCRASQSFSSSYLAWYQQKPGQAPRLLIFGASSRATGIPDRFSGSGSGTDFTLTINRLEPEDFALYYCQQYGRSPLTFGGGTKVEIKR
notes: Fully human antibody from XenoMouse; also called anti-IL-21 receptor antibody 30G3; IL-21R mAb 30G3
On to B2, for which the binding entry was “binds”.
